Reference: paper PMC4760121
No constants are given. Whether binding was seen depends on the method and setting. Binding seen in cells or lysates may run through a third protein. Some binding calls cover weakened binding; strength is not graded here. Values belong to the molecule of their own block, whether it stands above or below them.

Sequences of proteins named here, by UniProt entry; tags and fusion partners are left off. A change or cut given only in a name is not applied to a line headed by its entry.
UniProt P58753: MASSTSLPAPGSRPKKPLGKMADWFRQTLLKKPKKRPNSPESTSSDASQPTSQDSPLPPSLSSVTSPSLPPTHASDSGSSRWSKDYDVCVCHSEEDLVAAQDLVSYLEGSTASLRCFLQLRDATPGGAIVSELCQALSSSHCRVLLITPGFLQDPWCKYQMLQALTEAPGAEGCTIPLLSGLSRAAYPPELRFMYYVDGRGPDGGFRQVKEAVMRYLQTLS

Key:
[1] = molecular target: T1, interferon gamma receptor (IFNGR1), endogenous in HEK293 cells (human (endogenous in HEK293)) (UniProt P15260); assay: co-IP; HEK293 cells transfected with HA-tagged Mal constructs; precleared lysates incubated at 4°C for at least 2 hr with antibodies to HA or to the interferon gamma receptor (IFNGR1) or control rabbit IgG and protein G beads; Western blot
T1 sequence: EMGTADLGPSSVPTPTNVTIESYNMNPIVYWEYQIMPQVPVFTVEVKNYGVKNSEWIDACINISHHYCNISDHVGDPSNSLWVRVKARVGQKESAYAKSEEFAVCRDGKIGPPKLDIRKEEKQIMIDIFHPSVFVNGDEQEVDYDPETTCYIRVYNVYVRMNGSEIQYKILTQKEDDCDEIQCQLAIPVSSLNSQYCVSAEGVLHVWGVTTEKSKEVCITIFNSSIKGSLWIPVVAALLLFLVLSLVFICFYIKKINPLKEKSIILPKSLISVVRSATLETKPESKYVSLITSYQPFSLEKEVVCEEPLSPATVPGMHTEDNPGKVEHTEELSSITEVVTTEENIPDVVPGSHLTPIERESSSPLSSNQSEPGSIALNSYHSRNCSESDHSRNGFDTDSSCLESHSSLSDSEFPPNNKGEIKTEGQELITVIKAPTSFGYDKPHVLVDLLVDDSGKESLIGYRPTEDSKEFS

[2] = molecular target: HA-tagged Mal (MyD88 adaptor-like, encoded by TIRAP), wild type (human) (UniProt P58753); assay: as above

binding [1]: binds
Molecule: HA-tagged S180L variant Mal (from UniProt P58753 1-221)

binding [1]: no binding
Molecule: Mal mutant construct consisting solely of the TIR domain (from UniProt P58753 84-213) (domain or fragment)

binding [1]: binds
Molecule: HA-tagged Mal (MyD88 adaptor-like, encoded by TIRAP), wild type (from UniProt P58753 1-221)

binding [2]: binds
B1: interferon gamma receptor (IFNGR1), endogenous in HEK293 cells (receptor, UniProt P15260 18-489)
chain: T1 sequence
